Laboratory results from patent US6911418B2, “Method for treating a subterranean formation” (Schlumberger Technology Corporation, priority 2001, dated 2005).

Assay: coreflood test, pore volume to breakthrough (PVbt)

CC(=O)ON(CCN(OC(C)=O)OC(C)=O)OC(C)=O.N.N.N.N [tetraammonium ethylenediamine tetraacetate]
PVbt compared with 20 percent tetrasodium ethylenediamine tetraacetate solution (149° C., 5 ml per minute, 22 percent solutions, FIG. 2): lower PVbt

tetrasodium ethylenediamine tetraacetate
pore volume to breakthrough (PVbt) (66° C., injection rate 5.0 ml/min, 20 percent tetrasodium, 28 percent dipotassium, 22 percent diammonium EDTA solutions, estimated from permeability/time curve): about 30

dipotassium ethylenediamine tetraacetate
pore volume to breakthrough (PVbt): about 22

Like-named read-outs stand apart in the source and are kept apart here.
